The other results are listed elsewhere or left out. The main result of the screen is listed elsewhere. These columns were measured beside it and carry no call. Compounds called inactive in the main read-out are mostly missing here. Potencies come from curve fits of mixed quality, noted in brackets.
Experiment: qHTS Assay for Modulators of Lamin A Splicing
Settings: HeLa LMNA splicing GFP/RFP minigene ratio, 48 h
Method in brief: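 S3 HeLa cells stably expressing lamin A-EGFP splicing minigene plus DsRed2, 600 cells/well, 48 h compound exposure at 37C. Laser-scanning cytometry; analysed as GFP (500-530 nm)/RFP (575-640 nm) total intensity ratio; 0.5% DMSO vehicle.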

[1] = measured here: RFP viability control channel
[2] = measured here: GFP splicing reporter channel

SMILES	AC50 [1]	AC50 [2]
COC(=O)C1=C(Nc2ccc(C)cc2)C=C(C)C(C(=O)OC)C1c1cccc(OC)c1 (centres undefined)	5.62 µM [rising, single point]	
O=P(O)(O)OC[C@H](O)CO		0.0224 µM [falling, full curve, poor fit]
CCOc1ccccc1NC(=S)N(CCCN1CCOCC1)Cc1cn(C)c2ccccc12	22.4 µM [rising, single point]	
COc1cc(C2c3cc4c(cc3C(O[C@@H]3OC5COC(c6cccs6)OC5C(O)C3O)C3COC(=O)C23)OCO4)cc(OC)c1O (some centres undefined)		0.562 µM [rising, single point]
Cc1cccc(OCC(=O)Nc2ccc(C(=O)c3ccc(C(=O)O)cc3)cc2)c1	12.6 µM [falling, partial curve, poor fit]	
O=[N+]([O-])c1ccc(CSc2ncnc3c2ncn3[C@@H]2O[C@H](CO)[C@H](O)[C@H]2O)cc1	0.000891 µM [falling, full curve, poor fit]	
CCn1c(SCC(=O)Nc2c(C)cccc2C)nnc1-c1nonc1NC(C)=O	3.16 µM [falling, partial curve]	2 µM [falling, partial curve, poor fit]
Nc1ccn([C@@H]2O[C@@H](CO)[C@@H](O)[C@H]2O)c(=O)n1	1 µM [rising, full curve, poor fit]	
C=CC1=C2C=C(C3CC3)N(Cc3ccc4c(c3)OCO4)C=C2C(=O)C(C)(OC(=O)c2ccco2)C1=O (centres undefined)	0.447 µM [falling, partial curve, poor fit]	
O=C(COC(=O)c1n[nH]c2ccccc12)c1cc(F)ccc1F		0.562 µM [rising, full curve, poor fit]
CCC1C(=O)CC(c2ccccc2)NC1c1ccccc1 (centres undefined)	20 µM [rising, single point]	
COC(=O)CSc1nc2ccc(N)cc2s1	0.00316 µM [falling, full curve]	0.00447 µM [falling, full curve, poor fit]
COc1ccccc1/C=C(/CC(=O)NCc1ccc2c(c1)OCO2)c1nc2ccccc2s1	17.8 µM [rising, partial curve]	0.0398 µM [rising, full curve, poor fit]
CS(=O)(=O)N1CCc2cc(-c3csc(NC(=O)Cc4ccccc4)n3)ccc21	12.6 µM [rising, partial curve]	
CCCN1C(=O)C2(SC(NC(C)=O)=NN2C(C)=O)c2cc(C)ccc21 (centres undefined)		0.891 µM [rising, full curve]
COc1cccc(N2CC(O)=C(c3nc4ccccc4s3)C2=N)c1	20 µM [falling, partial curve, poor fit]	2.51 µM [falling, partial curve, poor fit]
Nc1cc(N2CCCCC2)c(Cl)cc1[N+](=O)[O-]	10 µM [rising, partial curve, poor fit]	
O=C(c1ccccc1)c1nn(-c2ccc(Cl)cc2)c(=O)cc1C(F)(F)F	7.08 µM [falling, partial curve]	4.47 µM [falling, full curve]
Cc1ccc(C(=O)OCC(=O)c2c[nH]c3ccccc23)cc1S(=O)(=O)N1CCCCC1	25.1 µM [rising, single point]	12.6 µM [rising, partial curve]
COc1ccc(Cc2nc3ccc(C(=O)NCc4ccccc4Cl)cc3o2)cc1	0.01 µM [falling, full curve, poor fit]	28.2 µM [falling, single point]
COc1ccc(NC(=O)CSc2nnc(-c3cccs3)n2Cc2ccco2)cc1OC	8.91 µM [rising, partial curve, poor fit]	
CCN1CCN(c2ccc([N+](=O)[O-])cc2C(=O)c2ccc(Cl)cc2)CC1	31.6 µM [falling, single point]	5.62 µM [falling, single point]
O=C(NNC(=S)Nc1ccc(Cl)cc1)c1ccccc1OC(F)F	11.2 µM [rising, partial curve]	12.6 µM [rising, partial curve]
CCN1CCc2c(C#N)c(N3CCCCC3)nc(N3CCOCC3)c2C1	22.4 µM [falling, single point]	17.8 µM [falling, single point]
CCOc1ccc(CC(=O)NCC(c2cccs2)S(=O)(=O)c2ccc(F)c(C)c2)cc1 (centres undefined)	4.47 µM [rising, single point]	2.24 µM [rising, partial curve]
O=C(Nc1ncc(Cc2ccccc2)s1)c1cccs1	35.5 µM [rising, single point]	35.5 µM [rising, single point]
Cc1ccc(OCCCn2ccnc2)c([N+](=O)[O-])c1	5.62 µM [rising, partial curve, poor fit]	

SMILES	AC50 [1]	AC50 [2]
Cc1cccc(NC(=S)NCc2ccc3[nH]c4c(c3c2)CCCC4)c1	35.5 µM [rising, single point]	31.6 µM [rising, single point]
Cc1cc(Cl)ccc1OCC(=O)NCCOC(=O)Nc1sc(=S)n(C)c1C	31.6 µM [rising, single point]	
O=c1nc2ccccc2c2n1CC(CN1CCN(C(c3ccccc3)c3ccccc3)CC1)N2 (centres undefined)		11.2 µM [rising, partial curve, poor fit]
Cc1ccc(Sc2c([N+](=O)[O-])c(C)nn2C)cc1	3.98 µM [falling, full curve, poor fit]	
CCC1(CC)Cc2ccccc2-c2nc(CN3CCOCC3)[nH]c(=O)c21		35.5 µM [rising, single point]
CCn1ncc(Br)c1C(=O)Nc1cc(C)ccc1F	11.2 µM [falling, partial curve, poor fit]	
O=C(Nc1nnc(S(=O)(=O)N2CCc3ccccc32)s1)c1cccc(Cl)c1	5.01 µM [falling, partial curve, poor fit]	28.2 µM [falling, partial curve, poor fit]
Cn1c(=O)n(C)c2cc(NS(=O)(=O)c3ccc(Cl)s3)ccc21		1.58 µM [falling, partial curve, poor fit]
CN(Cc1ccccc1)S(=O)(=O)c1ccc(C(=O)Nc2nnc(C3CC3)o2)cc1	17.8 µM [falling, single point]	2.82 µM [falling, full curve]
C=CCN(c1ccccc1OC)S(=O)(=O)c1cccc(C(=O)OCC(=O)c2c[nH]c3ccccc23)c1	22.4 µM [rising, partial curve]	
CSc1ccccc1NC(=O)COC(=O)c1ccccc1O	0.0112 µM [rising, full curve, poor fit]	0.00316 µM [rising, full curve, poor fit]
COc1ccc(NS(=O)(=O)c2cccc(NC(=O)NC3CCCCC3)c2)cc1	10 µM [rising, partial curve]	
CN1C=CC=C/C1=C1\SC(=S)N(CC(=O)O)C1=O	0.0282 µM [falling, full curve, poor fit]	
C[N+]1(CCCOC(=O)C2(c3ccccc3)CCCC2)CCOCC1		22.4 µM [rising, single point]
O=C(NCc1ccccc1)C1CC(=O)N(C2CCCCCC2)C1 (centres undefined)	0.00501 µM [falling, full curve]	0.00501 µM [falling, full curve, poor fit]
O=C(NC1CCCCC1)C(c1ccc2ncccc2c1)N(Cc1ccc2c(c1)OCO2)C(=O)c1ccc2c(c1)OCCO2 (centres undefined)	12.6 µM [rising, partial curve]	
NNC(=O)c1cc(O)c(O)c(O)c1	0.02 µM [falling, full curve, poor fit]	
Cc1cc(NS(=O)(=O)c2ccc3oc(=O)c4ncn(C)c4c3c2)ccc1Br	35.5 µM [falling, single point]	35.5 µM [falling, partial curve, poor fit]
CC(=O)N1CCN(c2ccc(NC(=S)NC(=O)COc3ccc(C(C)(C)C)cc3)cc2)CC1	12.6 µM [rising, partial curve]	5.62 µM [rising, partial curve]
C=C(C)COc1ccc(-c2nc(N)ncc2-c2ccc(OC)cc2)c(O)c1	12.6 µM [falling, partial curve]	12.6 µM [falling, partial curve]
Nc1c(C(=O)NCCN2CCOCC2)c2nc3ccccc3nc2n1-c1ccccc1	14.1 µM [rising, single point]	
CC1=NN(C(N)=S)C(=O)C1N=Nc1c(C)cc(C)cc1C (centres undefined)		3.98 µM [falling, single point]
O=c1nc(Nc2cccc(Cl)c2)oc2cc(Cl)oc(=O)c12	3.16 µM [falling, full curve, poor fit]	
C=CCOC(=O)c1c(C)nc2cc3c(cc2c1C)OCO3	35.5 µM [rising, single point]	25.1 µM [rising, single point]
COc1c(Cl)cc(Cl)cc1CNc1ccc(S(N)(=O)=O)cc1	35.5 µM [falling, single point]	
CCCc1cc(-c2nc(N)ncc2-c2ccc3c(c2)OCCCO3)c(O)cc1OC	35.5 µM [rising, single point]	

Quoted at random: two records from the list
SMILES	AC50 [1]	AC50 [2]
C=CCOC(=O)c1c(C)nc2cc3c(cc2c1C)OCO3	35.5 µM [rising, single point]	25.1 µM [rising, single point]
Nc1c(C(=O)NCCN2CCOCC2)c2nc3ccccc3nc2n1-c1ccccc1	14.1 µM [rising, single point]	
